The target of this assay is T1, LSD1-sGFP (35S:LSD1-sGFP, N. benthamiana) (Arabidopsis thaliana) (UniProt P94077).
T1 sequence: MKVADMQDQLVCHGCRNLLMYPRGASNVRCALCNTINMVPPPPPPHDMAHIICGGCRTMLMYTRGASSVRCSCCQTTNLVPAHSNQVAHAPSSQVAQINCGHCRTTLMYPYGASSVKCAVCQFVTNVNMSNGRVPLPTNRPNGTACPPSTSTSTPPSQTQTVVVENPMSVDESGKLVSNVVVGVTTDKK
Put plainly: co-IP.

These are yes or no findings as the source states them, for the method shown. Binding seen in cells or lysates may run through a third protein. Tags and fused reporters may be left off the sequences shown.

“GLK1ΔCT-Myc (Arabidopsis thaliana) (domain or fragment)”: the binding result is “no binding”.

Values taken from doi:10.1101/2020.11.22.393603 (bioRxiv, 2020).
